Measurements reported in PubChem BioAssay AID504764 (Drosophila RNAi Screening Center, 2011)

Purpose: 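Genome-wide screen for regulators of Notch-driven gene expression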 (primary screen)
System: Drosophila Kc167 cells
Reagents: long dsRNA against Drosophila genes
Time to read-out: about 5 days (4 days dsRNA, then 24 h after transfection)
Conditions: transfection of constitutively active membrane-tethered Notch lacking the extracellular domain, read 24 h later
Measurement: 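Firefly luciferase from an E(spl)m3 reporter with active Notch, plus control-promoter and uninduced reporter wells for normalisation; unnormalised counts, duplicate wells a and b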
Direction: induced reporter light, run 1, well a and induced reporter light, run 1, well b: higher = more light from the Notch target reporter with active Notch; control promoter light, run 1, well a and control promoter light, run 1, well b: higher = more light from the viral control promoter (cell number, transfection, viability); uninduced reporter light, run 1, well a: higher = more light from the Notch target reporter without active Notch
Hit rule: 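Hit if the duplicate-averaged log2 ratio of induced to control-promoter light gives a plate-wise z beyond ±2, or induced to uninduced beyond ±1.8; weak-control or discordant-duplicate wells dropped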
Meaning of the calls: active = modifier hit (raised or lowered Notch signal); inactive = not a hit
The deposit covers about 22,000 reagents; below is an unselected part of those with a known target gene and a result. Of all reagents, 403 (1.9%) are marked active. 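Unnormalised raw counts per well; ratio z-scores behind the hit calls and whether each hit raises or lowers signal are not deposited.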 Entries without a mark were called inactive. Not stated in the record: the amount of reagent.

After knock-down of Ndg, the screen gave induced reporter light, run 1, well a = 96660; induced reporter light, run 1, well b = 85760; control promoter light, run 1, well a = 62025; control promoter light, run 1, well b = 71775; uninduced reporter light, run 1, well a = 6680.
After knock-down of so, the screen gave induced reporter light, run 1, well a = 70320; induced reporter light, run 1, well b = 69865; control promoter light, run 1, well a = 54120; control promoter light, run 1, well b = 69110; uninduced reporter light, run 1, well a = 4735.
nec showed induced reporter light, run 1, well a = 2.28e5; induced reporter light, run 1, well b = 1.91e5; control promoter light, run 1, well a = 2.63e5; control promoter light, run 1, well b = 2.03e5; uninduced reporter light, run 1, well a = 17810.
Against mago, the values are induced reporter light, run 1, well a = 14695; induced reporter light, run 1, well b = 26470; control promoter light, run 1, well a = 31910; control promoter light, run 1, well b = 20660; uninduced reporter light, run 1, well a = 1540.
Knock-down of link resulted in: induced reporter light, run 1, well a = 75270; induced reporter light, run 1, well b = 74355; control promoter light, run 1, well a = 1.08e5; control promoter light, run 1, well b = 1.09e5; uninduced reporter light, run 1, well a = 8155.
Depletion of Gyc89Da gave: induced reporter light, run 1, well a = 2.53e5; induced reporter light, run 1, well b = 2.45e5; control promoter light, run 1, well a = 2.24e5; control promoter light, run 1, well b = 2.11e5; uninduced reporter light, run 1, well a = 16745.
Knock-down of Nulp1 resulted in: induced reporter light, run 1, well a = 1.38e5; induced reporter light, run 1, well b = 1.21e5; control promoter light, run 1, well a = 93270; control promoter light, run 1, well b = 48660; uninduced reporter light, run 1, well a = 11855.
ETHR showed induced reporter light, run 1, well a = 2.19e5; induced reporter light, run 1, well b = 2.00e5; control promoter light, run 1, well a = 2.44e5; control promoter light, run 1, well b = 2.65e5; uninduced reporter light, run 1, well a = 13588.
Silencing of Taf1 came out at: induced reporter light, run 1, well a = 61045; induced reporter light, run 1, well b = 68275; control promoter light, run 1, well a = 47840; control promoter light, run 1, well b = 50385; uninduced reporter light, run 1, well a = 4460.
For CG9705 the deposit lists induced reporter light, run 1, well a = 90745; induced reporter light, run 1, well b = 1.16e5; control promoter light, run 1, well a = 65450; control promoter light, run 1, well b = 90120; uninduced reporter light, run 1, well a = 10985.
For CG10053, the values are induced reporter light, run 1, well a = 1.14e5; induced reporter light, run 1, well b = 1.50e5; control promoter light, run 1, well a = 91090; control promoter light, run 1, well b = 89390; uninduced reporter light, run 1, well a = 9385.
With knock-down of AANATL3, the screen gave induced reporter light, run 1, well a = 46280; induced reporter light, run 1, well b = 40785; control promoter light, run 1, well a = 51260; control promoter light, run 1, well b = 65165; uninduced reporter light, run 1, well a = 2800.
